Earlier results, collected in patent publication US20230040206A1, “Microparticle Enabled Delivery Structures, Methods of Preparing and Using Same” (University of Kentucky Research Foundation, priority 2015, published 2023).
Some entries share one result that the patent states for a list of compounds.

Conditions: intra-articular injection

SMILES | intra-articular resident times
CC(C)(C)CC(=O)OCC(=O)[C@@]12OC(C)(C)O[C@@H]1C[C@H]1[C@@H]3CCC4=CC(=O)C=C[C@]4(C)[C@@]3(F)[C@@H](O)C[C@@]12C [triamcinolone hexacetonide] | 3 to 6 days
CC1(C)O[C@@H]2C[C@H]3[C@@H]4CCC5=CC(=O)C=C[C@]5(C)[C@@]4(F)[C@@H](O)C[C@]3(C)[C@]2(C(=O)CO)O1 [triamcinolone acetonide] | 3 to 6 days
